Values from PubChem BioAssay AID1224828 (NIAID, 2016)
Aim: 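Knock-downs that increase or decrease LPS-induced p65 nuclear translocation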 (primary screen). Cell system: mouse RAW264.7 G9 macrophage reporter cells (GFP-p65, Tnf promoter-mCherry). Knock-down reagent: siRNA pool against mouse genes, 100 nM. Timing: 2 days siRNA transfection, then 40 min LPS before fixation. Challenge: LPS (Salmonella minnesota R595) at 10 ng/ml. Measurement: 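Microscopy ratio of nuclear to perinuclear-ring GFP-p65 signal, scaled to the plate median; gene score is the average of two replicate robust z-scores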. Direction: p65 translocation robust z-score: higher = more nuclear NF-kappaB p65 after LPS than the plate median; nuclear/cytoplasmic p65 ratio: higher = more nuclear NF-kappaB p65. Rule for the call: 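Called active when z exceeds 3.3 or falls under -1.56 (median of Tlr4 controls), giving activity score of at least 50; no calls for control wells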. Meaning of the calls: active = hit (p65 shift raised or lowered); inactive = no clear change.
This is one part, drawn at random, of about 17,000 deposited reagents. 762 of them (4.5%) count as active. 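Active calls include both raised and lowered p65 entry, mostly lowered; wells with fewer than 50 cells lack a z-score.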 Raw values are not corrected between plates. A number with no mark means an inactive call. The numbers tell different reagents against one gene apart.

{"gene": "Clxn (calaxin)", "reagent no.": 1, "nuclear/cytoplasmic p65 ratio, rep 1": 1.12, "nuclear/cytoplasmic p65 ratio, rep 2": 1.33, "low cell count flag": "fewer than 50 cells per well; well left out of scoring"}
{"gene": "Prss1 (serine protease 1 (trypsin 1))", "reagent no.": 1, "p65 translocation robust z-score": -0.15, "nuclear/cytoplasmic p65 ratio, rep 1": 1.53, "nuclear/cytoplasmic p65 ratio, rep 2": 1.45, "low cell count flag": "enough cells to score"}
{"gene": "Kifc5b (kinesin family member C5B)", "reagent no.": 1, "nuclear/cytoplasmic p65 ratio, rep 1": 1.59, "nuclear/cytoplasmic p65 ratio, rep 2": 1.37, "low cell count flag": "fewer than 50 cells per well; well left out of scoring"}
{"gene": "Kifc5b (kinesin family member C5B)", "reagent no.": 2, "p65 translocation robust z-score": 0.12, "nuclear/cytoplasmic p65 ratio, rep 1": 1.57, "nuclear/cytoplasmic p65 ratio, rep 2": 1.39, "low cell count flag": "enough cells to score"}
{"gene": "Itgb3bp (integrin beta 3 binding protein (beta3-endonexin))", "reagent no.": 1, "p65 translocation robust z-score": 1.15, "nuclear/cytoplasmic p65 ratio, rep 1": 1.74, "nuclear/cytoplasmic p65 ratio, rep 2": 1.83, "low cell count flag": "enough cells to score"}
{"gene": "Pdx1 (pancreatic and duodenal homeobox 1)", "reagent no.": 1, "p65 translocation robust z-score": 0.04, "nuclear/cytoplasmic p65 ratio, rep 1": 1.51, "nuclear/cytoplasmic p65 ratio, rep 2": 1.35, "low cell count flag": "enough cells to score"}
{"gene": "Glra1 (glycine receptor, alpha 1 subunit)", "reagent no.": 1, "p65 translocation robust z-score": -1.47, "nuclear/cytoplasmic p65 ratio, rep 1": 1.2, "nuclear/cytoplasmic p65 ratio, rep 2": 1.22, "low cell count flag": "enough cells to score"}
{"gene": "Slc1a4", "reagent no.": 1, "p65 translocation robust z-score": -0.54, "nuclear/cytoplasmic p65 ratio, rep 1": 1.38, "nuclear/cytoplasmic p65 ratio, rep 2": 1.16, "low cell count flag": "enough cells to score"}
{"gene": "Ncbp3 (nuclear cap binding subunit 3)", "reagent no.": 1, "p65 translocation robust z-score": -0.22, "nuclear/cytoplasmic p65 ratio, rep 1": 1.36, "nuclear/cytoplasmic p65 ratio, rep 2": 1.4, "low cell count flag": "enough cells to score"}
{"gene": "Ssh1 (slingshot protein phosphatase 1)", "reagent no.": 1, "nuclear/cytoplasmic p65 ratio, rep 1": 1.28, "nuclear/cytoplasmic p65 ratio, rep 2": 1.28, "low cell count flag": "fewer than 50 cells per well; well left out of scoring"}
{"gene": "Nuak1 (NUAK family, SNF1-like kinase, 1)", "reagent no.": 1, "p65 translocation robust z-score": -1.32, "nuclear/cytoplasmic p65 ratio, rep 1": 1.42, "nuclear/cytoplasmic p65 ratio, rep 2": 1.26, "low cell count flag": "enough cells to score"}
{"gene": "Gm4814 (predicted gene 4814)", "reagent no.": 1, "nuclear/cytoplasmic p65 ratio, rep 1": 1.46, "nuclear/cytoplasmic p65 ratio, rep 2": 1.41, "low cell count flag": "fewer than 50 cells per well; well left out of scoring"}
{"gene": "Anxa4 (annexin A4)", "reagent no.": 1, "p65 translocation robust z-score": 0.6, "nuclear/cytoplasmic p65 ratio, rep 1": 1.72, "nuclear/cytoplasmic p65 ratio, rep 2": 1.7, "low cell count flag": "enough cells to score"}
{"gene": "Yif1a (Yip1 interacting factor homolog A (S. cerevisiae))", "reagent no.": 1, "p65 translocation robust z-score": -0.08, "nuclear/cytoplasmic p65 ratio, rep 1": 1.33, "nuclear/cytoplasmic p65 ratio, rep 2": 1.31, "low cell count flag": "enough cells to score"}
{"gene": "Nfat5 (nuclear factor of activated T cells 5)", "reagent no.": 1, "p65 translocation robust z-score": 2.19, "nuclear/cytoplasmic p65 ratio, rep 1": 1.65, "nuclear/cytoplasmic p65 ratio, rep 2": 1.7, "low cell count flag": "enough cells to score"}
{"gene": "Rundc1 (RUN domain containing 1)", "reagent no.": 1, "p65 translocation robust z-score": -1.15, "nuclear/cytoplasmic p65 ratio, rep 1": 1.42, "nuclear/cytoplasmic p65 ratio, rep 2": 1.36, "low cell count flag": "enough cells to score"}
{"gene": "Ulk1 (unc-51 like kinase 1)", "reagent no.": 1, "p65 translocation robust z-score": 1.23, "nuclear/cytoplasmic p65 ratio, rep 1": 1.74, "nuclear/cytoplasmic p65 ratio, rep 2": 1.54, "low cell count flag": "enough cells to score"}
{"gene": "Spmip10 (sperm microtubule inner protein 10)", "reagent no.": 1, "p65 translocation robust z-score": -0.68, "nuclear/cytoplasmic p65 ratio, rep 1": 1.33, "nuclear/cytoplasmic p65 ratio, rep 2": 1.31, "low cell count flag": "enough cells to score"}
{"gene": "Atp13a1 (ATPase type 13A1)", "reagent no.": 1, "p65 translocation robust z-score": 0.92, "nuclear/cytoplasmic p65 ratio, rep 1": 1.74, "nuclear/cytoplasmic p65 ratio, rep 2": 1.77, "low cell count flag": "enough cells to score"}
{"gene": "Snai1 (snail family zinc finger 1)", "reagent no.": 1, "p65 translocation robust z-score": 0.72, "nuclear/cytoplasmic p65 ratio, rep 1": 1.58, "nuclear/cytoplasmic p65 ratio, rep 2": 1.73, "low cell count flag": "enough cells to score"}
{"gene": "Ugt1a2 (UDP glucuronosyltransferase 1 family, polypeptide A2)", "reagent no.": 1, "nuclear/cytoplasmic p65 ratio, rep 1": 1.03, "nuclear/cytoplasmic p65 ratio, rep 2": 1.56, "low cell count flag": "fewer than 50 cells per well; well left out of scoring"}

Part of the list above, reduced to “nuclear/cytoplasmic p65 ratio, rep 1”:
Ncbp3 (nuclear cap binding subunit 3): 1.36
Ssh1 (slingshot protein phosphatase 1): 1.28
Nuak1 (NUAK family, SNF1-like kinase, 1): 1.42
